These are yes or no findings as the source states them, for the method shown. In cells and extracts the contact can be indirect. Some entries that bind do so weakly or less than the wild type.
Target: T1, PCDH20 (UniProt Q8N6Y1)
T1 sequence: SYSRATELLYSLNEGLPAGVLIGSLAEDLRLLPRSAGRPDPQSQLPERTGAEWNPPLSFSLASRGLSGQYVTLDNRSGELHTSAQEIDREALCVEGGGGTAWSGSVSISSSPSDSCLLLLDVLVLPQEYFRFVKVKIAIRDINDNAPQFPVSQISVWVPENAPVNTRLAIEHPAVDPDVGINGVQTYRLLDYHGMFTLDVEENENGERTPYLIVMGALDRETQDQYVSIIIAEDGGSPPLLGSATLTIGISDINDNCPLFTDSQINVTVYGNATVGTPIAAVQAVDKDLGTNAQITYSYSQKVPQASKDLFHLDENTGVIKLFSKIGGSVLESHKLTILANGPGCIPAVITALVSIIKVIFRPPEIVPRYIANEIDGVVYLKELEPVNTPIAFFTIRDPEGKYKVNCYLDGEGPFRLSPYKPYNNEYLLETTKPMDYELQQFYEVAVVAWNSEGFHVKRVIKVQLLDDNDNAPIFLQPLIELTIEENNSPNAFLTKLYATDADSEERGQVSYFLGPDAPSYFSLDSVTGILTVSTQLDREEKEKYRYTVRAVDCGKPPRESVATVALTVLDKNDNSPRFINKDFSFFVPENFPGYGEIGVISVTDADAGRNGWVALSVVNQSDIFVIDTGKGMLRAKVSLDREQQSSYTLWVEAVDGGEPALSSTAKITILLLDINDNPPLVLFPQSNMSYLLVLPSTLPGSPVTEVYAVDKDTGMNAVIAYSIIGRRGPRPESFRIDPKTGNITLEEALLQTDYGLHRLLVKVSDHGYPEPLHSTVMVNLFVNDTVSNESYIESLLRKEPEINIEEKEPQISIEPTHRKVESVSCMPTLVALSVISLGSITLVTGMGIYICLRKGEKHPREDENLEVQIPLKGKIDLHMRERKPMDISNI
Experiment: co-IP; cell lysate (lytic buffer, Beyotime P0013) incubated with primary antibody overnight at 4°C, Protein G-agarose beads 2 h at 4°C, washed 3 times, Western blot; cells and precipitating antibody not named

The chains behind the UniProt entries cited, without tags or fusion partners.
UniProt P80192: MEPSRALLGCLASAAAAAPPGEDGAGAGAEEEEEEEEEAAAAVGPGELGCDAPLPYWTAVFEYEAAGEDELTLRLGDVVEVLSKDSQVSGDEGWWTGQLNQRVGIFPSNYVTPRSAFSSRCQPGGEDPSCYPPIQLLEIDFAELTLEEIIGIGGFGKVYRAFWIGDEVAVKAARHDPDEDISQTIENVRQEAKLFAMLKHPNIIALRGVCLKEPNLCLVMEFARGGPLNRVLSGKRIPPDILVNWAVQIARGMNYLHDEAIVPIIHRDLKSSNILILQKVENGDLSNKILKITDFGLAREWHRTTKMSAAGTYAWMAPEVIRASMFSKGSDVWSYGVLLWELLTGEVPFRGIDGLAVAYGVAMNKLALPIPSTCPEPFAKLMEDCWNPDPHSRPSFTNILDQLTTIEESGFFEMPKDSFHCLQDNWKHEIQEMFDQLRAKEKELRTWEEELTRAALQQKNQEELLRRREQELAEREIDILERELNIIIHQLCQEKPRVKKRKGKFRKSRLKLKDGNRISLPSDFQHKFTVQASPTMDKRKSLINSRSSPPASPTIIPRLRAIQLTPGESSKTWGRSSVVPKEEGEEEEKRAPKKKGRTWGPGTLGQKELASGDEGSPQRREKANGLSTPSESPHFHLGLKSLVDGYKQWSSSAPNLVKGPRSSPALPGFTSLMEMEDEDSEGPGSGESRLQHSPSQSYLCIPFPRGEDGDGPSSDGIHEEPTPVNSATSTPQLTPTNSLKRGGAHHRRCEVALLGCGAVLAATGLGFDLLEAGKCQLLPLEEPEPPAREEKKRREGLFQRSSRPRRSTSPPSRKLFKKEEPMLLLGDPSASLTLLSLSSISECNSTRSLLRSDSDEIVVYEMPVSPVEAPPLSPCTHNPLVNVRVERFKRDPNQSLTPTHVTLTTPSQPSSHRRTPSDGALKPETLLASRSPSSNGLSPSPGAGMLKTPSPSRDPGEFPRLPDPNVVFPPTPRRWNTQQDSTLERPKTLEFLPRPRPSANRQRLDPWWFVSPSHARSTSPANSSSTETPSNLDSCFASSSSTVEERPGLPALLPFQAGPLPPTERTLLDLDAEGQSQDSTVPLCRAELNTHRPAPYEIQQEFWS

- binding: binds
Substance: MAP3K9 (from UniProt P80192 1-1104)
